The experiment deals with FLAG-tagged full-length PRRC2B (Pro-rich Coiled-coil Containing Protein 2B) (human) (UniProt Q5JSZ5). As to the kind of experiment: affinity purification with mass spectrometry.

Chains of the proteins cited; added tags and fusions are not shown.
UniProt Q5JSZ5: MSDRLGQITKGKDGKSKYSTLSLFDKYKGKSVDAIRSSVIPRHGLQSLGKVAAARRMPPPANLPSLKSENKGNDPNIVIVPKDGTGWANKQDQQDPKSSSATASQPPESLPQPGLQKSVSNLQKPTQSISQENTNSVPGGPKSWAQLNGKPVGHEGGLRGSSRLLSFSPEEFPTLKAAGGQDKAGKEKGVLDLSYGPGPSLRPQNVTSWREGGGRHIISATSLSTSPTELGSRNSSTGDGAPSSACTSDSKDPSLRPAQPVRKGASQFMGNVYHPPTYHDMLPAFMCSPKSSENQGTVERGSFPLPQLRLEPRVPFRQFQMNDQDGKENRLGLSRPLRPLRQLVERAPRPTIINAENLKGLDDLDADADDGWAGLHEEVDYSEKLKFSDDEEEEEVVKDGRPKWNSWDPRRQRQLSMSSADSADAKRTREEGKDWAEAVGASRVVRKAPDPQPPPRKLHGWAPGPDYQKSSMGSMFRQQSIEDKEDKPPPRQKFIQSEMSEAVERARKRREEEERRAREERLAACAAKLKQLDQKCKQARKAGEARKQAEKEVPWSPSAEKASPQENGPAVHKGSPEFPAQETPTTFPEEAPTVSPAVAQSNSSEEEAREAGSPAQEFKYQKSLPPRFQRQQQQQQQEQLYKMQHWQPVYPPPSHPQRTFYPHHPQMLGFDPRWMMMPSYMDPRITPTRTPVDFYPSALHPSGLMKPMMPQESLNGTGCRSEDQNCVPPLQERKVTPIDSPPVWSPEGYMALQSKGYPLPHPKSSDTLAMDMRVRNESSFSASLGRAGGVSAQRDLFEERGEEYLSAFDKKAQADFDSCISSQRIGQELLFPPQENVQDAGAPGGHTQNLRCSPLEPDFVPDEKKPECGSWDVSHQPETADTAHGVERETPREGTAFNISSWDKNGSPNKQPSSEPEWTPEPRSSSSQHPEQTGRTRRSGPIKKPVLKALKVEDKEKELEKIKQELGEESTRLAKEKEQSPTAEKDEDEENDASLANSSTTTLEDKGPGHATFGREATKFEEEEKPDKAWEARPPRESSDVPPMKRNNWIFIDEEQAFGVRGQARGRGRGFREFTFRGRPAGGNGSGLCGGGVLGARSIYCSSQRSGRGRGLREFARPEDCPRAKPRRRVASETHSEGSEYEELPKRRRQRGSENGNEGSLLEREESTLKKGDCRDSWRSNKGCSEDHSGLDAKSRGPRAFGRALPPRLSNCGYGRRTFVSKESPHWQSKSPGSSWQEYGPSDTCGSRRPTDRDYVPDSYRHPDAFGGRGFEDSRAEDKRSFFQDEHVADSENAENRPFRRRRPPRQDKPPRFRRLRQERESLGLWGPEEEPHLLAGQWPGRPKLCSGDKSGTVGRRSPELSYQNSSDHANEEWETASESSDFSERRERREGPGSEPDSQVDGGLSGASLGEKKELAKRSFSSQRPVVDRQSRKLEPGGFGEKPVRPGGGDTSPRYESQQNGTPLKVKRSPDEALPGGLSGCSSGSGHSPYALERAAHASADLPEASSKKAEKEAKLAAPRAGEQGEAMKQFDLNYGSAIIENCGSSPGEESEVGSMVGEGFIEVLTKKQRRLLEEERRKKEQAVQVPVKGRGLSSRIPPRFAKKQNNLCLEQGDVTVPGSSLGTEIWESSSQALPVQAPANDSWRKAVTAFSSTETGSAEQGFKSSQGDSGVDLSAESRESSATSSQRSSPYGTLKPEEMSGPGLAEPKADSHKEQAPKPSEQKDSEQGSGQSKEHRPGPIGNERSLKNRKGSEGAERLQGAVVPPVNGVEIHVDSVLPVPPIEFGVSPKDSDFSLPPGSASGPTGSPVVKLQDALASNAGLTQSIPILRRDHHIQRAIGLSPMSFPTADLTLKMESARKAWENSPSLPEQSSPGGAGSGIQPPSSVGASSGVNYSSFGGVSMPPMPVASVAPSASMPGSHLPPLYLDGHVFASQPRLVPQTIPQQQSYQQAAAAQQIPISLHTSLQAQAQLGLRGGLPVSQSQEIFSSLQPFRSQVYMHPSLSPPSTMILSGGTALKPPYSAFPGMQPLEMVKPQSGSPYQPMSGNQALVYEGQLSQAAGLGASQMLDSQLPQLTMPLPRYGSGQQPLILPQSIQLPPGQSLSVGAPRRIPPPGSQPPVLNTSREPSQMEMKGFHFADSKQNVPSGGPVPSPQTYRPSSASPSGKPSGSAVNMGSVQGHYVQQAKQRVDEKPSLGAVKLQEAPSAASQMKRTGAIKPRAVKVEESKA
UniProt P51114: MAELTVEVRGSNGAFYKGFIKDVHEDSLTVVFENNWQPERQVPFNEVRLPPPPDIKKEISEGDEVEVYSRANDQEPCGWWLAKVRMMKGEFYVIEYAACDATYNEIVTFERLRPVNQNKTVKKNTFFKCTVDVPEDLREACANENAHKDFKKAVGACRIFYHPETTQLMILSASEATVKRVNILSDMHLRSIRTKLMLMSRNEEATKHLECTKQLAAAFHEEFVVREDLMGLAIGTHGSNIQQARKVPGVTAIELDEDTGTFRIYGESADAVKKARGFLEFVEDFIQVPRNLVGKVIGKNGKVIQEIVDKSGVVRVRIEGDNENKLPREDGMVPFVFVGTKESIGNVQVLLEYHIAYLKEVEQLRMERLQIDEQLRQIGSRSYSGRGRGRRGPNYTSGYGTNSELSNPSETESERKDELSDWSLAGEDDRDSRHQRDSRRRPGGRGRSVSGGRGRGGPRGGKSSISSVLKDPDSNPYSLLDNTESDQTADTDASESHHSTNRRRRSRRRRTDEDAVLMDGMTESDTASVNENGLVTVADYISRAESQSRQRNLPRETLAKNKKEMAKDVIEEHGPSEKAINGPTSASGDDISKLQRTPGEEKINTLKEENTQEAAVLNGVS
UniProt P78344: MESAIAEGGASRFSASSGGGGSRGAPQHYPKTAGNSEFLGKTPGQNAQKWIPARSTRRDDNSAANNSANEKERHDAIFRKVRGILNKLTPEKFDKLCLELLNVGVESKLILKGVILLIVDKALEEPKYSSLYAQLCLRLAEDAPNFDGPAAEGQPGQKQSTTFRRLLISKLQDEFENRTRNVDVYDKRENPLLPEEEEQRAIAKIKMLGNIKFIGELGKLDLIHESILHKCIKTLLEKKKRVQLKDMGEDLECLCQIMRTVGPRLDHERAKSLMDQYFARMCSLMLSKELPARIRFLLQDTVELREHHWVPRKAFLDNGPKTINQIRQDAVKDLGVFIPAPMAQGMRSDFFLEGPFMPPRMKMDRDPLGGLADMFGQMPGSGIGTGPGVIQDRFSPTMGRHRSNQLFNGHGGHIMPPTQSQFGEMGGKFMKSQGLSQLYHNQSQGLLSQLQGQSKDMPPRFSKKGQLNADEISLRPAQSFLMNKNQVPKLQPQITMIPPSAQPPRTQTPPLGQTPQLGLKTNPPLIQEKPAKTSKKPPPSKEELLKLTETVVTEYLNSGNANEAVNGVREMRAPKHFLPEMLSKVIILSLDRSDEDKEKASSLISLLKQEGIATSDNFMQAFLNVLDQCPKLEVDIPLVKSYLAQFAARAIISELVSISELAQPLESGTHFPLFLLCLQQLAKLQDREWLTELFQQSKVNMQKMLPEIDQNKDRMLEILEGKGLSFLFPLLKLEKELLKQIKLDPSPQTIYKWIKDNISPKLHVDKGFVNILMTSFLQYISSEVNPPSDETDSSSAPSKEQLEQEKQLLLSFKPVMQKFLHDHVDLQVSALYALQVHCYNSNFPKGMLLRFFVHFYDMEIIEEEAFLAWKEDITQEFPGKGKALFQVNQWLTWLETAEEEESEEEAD

Results are given in words; binding and its absence hold for the method and conditions named. Binding seen in cells or lysates may run through a third protein. Here binding means that the protein was enriched with, or labelled near, the bait; the list need not be complete.

On to FXR1 (from UniProt P51114 1-621), for which the binding result is on record as “binds”.
Regarding “eIF4G2 (noncanonical translational initiation factor) (from UniProt P78344 1-907)”, the binding entry is “binds”.

For the origin of these results see article doi:10.1101/2024.09.26.24313895.
